The experiment addresses T1, phosphodiesterase 3A (PDE3A), endogenous in HEL cells (human (endogenous in HEL)), Q14432.
T1 chain: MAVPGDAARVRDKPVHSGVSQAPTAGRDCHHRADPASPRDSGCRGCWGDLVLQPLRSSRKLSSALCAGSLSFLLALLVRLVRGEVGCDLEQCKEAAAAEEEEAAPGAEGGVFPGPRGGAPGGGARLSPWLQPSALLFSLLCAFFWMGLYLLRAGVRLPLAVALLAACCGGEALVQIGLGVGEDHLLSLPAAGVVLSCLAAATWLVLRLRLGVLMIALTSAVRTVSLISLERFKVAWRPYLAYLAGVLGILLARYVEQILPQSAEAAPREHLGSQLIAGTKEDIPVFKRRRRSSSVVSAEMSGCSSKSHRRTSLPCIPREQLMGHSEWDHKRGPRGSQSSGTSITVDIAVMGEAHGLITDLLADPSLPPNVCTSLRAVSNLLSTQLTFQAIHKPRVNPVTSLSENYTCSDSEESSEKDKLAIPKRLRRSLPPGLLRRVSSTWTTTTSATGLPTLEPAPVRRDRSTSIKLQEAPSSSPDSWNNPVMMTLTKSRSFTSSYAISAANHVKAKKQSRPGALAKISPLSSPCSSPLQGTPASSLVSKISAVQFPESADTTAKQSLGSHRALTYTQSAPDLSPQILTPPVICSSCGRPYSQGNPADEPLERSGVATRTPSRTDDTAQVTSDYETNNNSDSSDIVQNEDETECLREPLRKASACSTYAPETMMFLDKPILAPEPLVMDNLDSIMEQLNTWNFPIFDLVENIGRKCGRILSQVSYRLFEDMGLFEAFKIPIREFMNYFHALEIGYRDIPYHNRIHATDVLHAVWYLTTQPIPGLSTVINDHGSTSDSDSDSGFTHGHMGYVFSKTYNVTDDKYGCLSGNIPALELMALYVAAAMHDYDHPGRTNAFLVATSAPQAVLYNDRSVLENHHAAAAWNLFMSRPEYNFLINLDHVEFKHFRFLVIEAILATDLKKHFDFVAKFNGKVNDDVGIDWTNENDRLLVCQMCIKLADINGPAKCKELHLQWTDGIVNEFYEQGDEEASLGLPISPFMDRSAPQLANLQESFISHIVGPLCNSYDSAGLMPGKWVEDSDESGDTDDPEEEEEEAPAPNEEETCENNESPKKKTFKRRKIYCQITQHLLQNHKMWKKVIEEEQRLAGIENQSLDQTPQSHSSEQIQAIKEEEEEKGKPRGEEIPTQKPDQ
The experiment is described as follows: co-IP; HEL cells treated with DMSO or BAY 2666605 (1 or 10 umol/L) for 24 hours; lysates incubated overnight at 4°C with anti-PDE3A rabbit polyclonal antibody or rabbit IgG control, Protein G Sepharose, four washes with NP-40 lysis buffer; immunoblot for SLFN12, PDE3A, then reprobed for PDE3B. To be noted: remark: other sources report otherwise.

These are yes or no findings as the source states them, for the method shown. In cells and extracts the contact can be indirect.

B1: phosphodiesterase 3B (PDE3B), endogenous in HEL cells, Q13370 1-1112 (enzyme)
chain: MRRDERDAKAMRSLQPPDGAGSPPESLRNGYVKSCVSPLRQDPPRGFFFHLCRFCNVELRPPPASPQQPRRCSPFCRARLSLGALAAFVLALLLGAEPESWAAGAAWLRTLLSVCSHSLSPLFSIACAFFFLTCFLTRTKRGPGPGRSCGSWWLLALPACCYLGDFLVWQWWSWPWGDGDAGSAAPHTPPEAAAGRLLLVLSCVGLLLTLAHPLRLRHCVLVLLLASFVWWVSFTSLGSLPSALRPLLSGLVGGAGCLLALGLDHFFQIREAPLHPRLSSAAEEKVPVIRPRRRSSCVSLGETAASYYGSCKIFRRPSLPCISREQMILWDWDLKQWYKPHYQNSGGGNGVDLSVLNEARNMVSDLLTDPSLPPQVISSLRSISSLMGAFSGSCRPKINPLTPFPGFYPCSEIEDPAEKGDRKLNKGLNRNSLPTPQLRRSSGTSGLLPVEQSSRWDRNNGKRPHQEFGISSQGCYLNGPFNSNLLTIPKQRSSSVSLTHHVGLRRAGVLSSLSPVNSSNHGPVSTGSLTNRSPIEFPDTADFLNKPSVILQRSLGNAPNTPDFYQQLRNSDSNLCNSCGHQMLKYVSTSESDGTDCCSGKSGEEENIFSKESFKLMETQQEEETEKKDSRKLFQEGDKWLTEEAQSEQQTNIEQEVSLDLILVEEYDSLIEKMSNWNFPIFELVEKMGEKSGRILSQVMYTLFQDTGLLEIFKIPTQQFMNYFRALENGYRDIPYHNRIHATDVLHAVWYLTTRPVPGLQQIHNGCGTGNETDSDGRINHGRIAYISSKSCSNPDESYGCLSSNIPALELMALYVAAAMHDYDHPGRTNAFLVATNAPQAVLYNDRSVLENHHAASAWNLYLSRPEYNFLLHLDHVEFKRFRFLVIEAILATDLKKHFDFLAEFNAKANDVNSNGIEWSNENDRLLVCQVCIKLADINGPAKVRDLHLKWTEGIVNEFYEQGDEEANLGLPISPFMDRSSPQLAKLQESFITHIVGPLCNSYDAAGLLPGQWLEAEEDNDTESGDDEDGEELDTEDEEMENNLNPKPPRRKSRRRIFCQLMHHLTENHKIWKEIVEEEEKCKADGNKLQVENSSLPQADEIQVIEEADEEE
As for B1, the binding result was “no binding”.
